These are yes or no findings as the source states them, for the method shown. Some entries that bind do so weakly or less than the wild type.
T1: KDM4A catalytic domain (residues 1-350) (human) (UniProt O75164)
T1 sequence: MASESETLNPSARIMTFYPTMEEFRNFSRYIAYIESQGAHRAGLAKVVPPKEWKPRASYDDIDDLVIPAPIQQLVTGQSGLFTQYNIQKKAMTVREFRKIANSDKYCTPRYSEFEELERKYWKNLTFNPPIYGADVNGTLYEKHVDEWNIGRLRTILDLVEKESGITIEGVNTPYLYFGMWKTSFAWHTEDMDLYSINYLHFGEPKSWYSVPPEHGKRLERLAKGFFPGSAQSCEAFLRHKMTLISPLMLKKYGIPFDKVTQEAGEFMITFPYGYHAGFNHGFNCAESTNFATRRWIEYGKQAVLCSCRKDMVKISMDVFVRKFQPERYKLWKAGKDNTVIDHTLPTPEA

Chains of the proteins cited; added tags and fusions are not shown. Residues count along the entry.
AR-DBD-LBD (androgen receptor residues 554-919) (P10275, residues 554-919): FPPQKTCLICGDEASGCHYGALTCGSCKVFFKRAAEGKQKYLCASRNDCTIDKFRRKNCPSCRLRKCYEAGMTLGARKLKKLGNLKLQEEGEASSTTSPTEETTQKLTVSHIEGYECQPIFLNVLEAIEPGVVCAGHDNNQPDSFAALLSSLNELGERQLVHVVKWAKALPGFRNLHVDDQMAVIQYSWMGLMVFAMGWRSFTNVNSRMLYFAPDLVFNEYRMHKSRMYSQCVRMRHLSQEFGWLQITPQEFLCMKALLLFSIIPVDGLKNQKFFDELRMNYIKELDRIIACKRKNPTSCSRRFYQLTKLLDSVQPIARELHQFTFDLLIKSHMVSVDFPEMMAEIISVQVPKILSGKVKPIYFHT
AR-LBD (androgen receptor ligand-binding domain, residues 663-919) (P10275, residues 663-919): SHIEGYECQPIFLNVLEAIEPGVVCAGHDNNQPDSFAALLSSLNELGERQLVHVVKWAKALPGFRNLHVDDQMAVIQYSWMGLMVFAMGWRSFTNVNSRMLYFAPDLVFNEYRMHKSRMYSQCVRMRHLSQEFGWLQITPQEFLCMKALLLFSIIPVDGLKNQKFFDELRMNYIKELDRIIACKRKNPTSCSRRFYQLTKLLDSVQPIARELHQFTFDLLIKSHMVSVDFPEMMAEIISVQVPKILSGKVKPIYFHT

B1: KDM4A central region (residues 301-708) (domain or fragment, UniProt O75164 301-708)
chain: KQAVLCSCRKDMVKISMDVFVRKFQPERYKLWKAGKDNTVIDHTLPTPEAAEFLKESELPPRAGNEEECPEEDMEGVEDGEEGDLKTSLAKHRIGTKRHRVCLEIPQEVSQSELFPKEDLSSEQYEMTECPAALAPVRPTHSSVRQVEDGLTFPDYSDSTEVKFEELKNVKLEEEDEEEEQAAAALDLSVNPASVGGRLVFSGSKKKSSSSLGSGSSRDSISSDSETSEPLSCRAQGQTGVLTVHSYAKGDGRVTVGEPCTRKKGSAARSFSERELAEVADEYMFSLEENKKSKGRRQPLSKLPRHHPLVLQECVSDDETSEQLTPEEEAEETEAWAKPLSQLWQNRPPNFEAEKEFNETMAQQAPHCAVCMIFQTYHQVEFGGFNQNCGNASDLAPQKQRTKPLIPE

Tests used:
[1] = target: T1, KDM4A catalytic domain (residues 1-350) (human); assay: NMR titration; 1H-15N TROSY-HSQC of 15N-KDM4A(1-350) or 15N-KDM4B(1-348), 40-50 uM, alone or with equimolar unlabelled AR fragment; 25 C; 25 mM Tris pH 7.4, 125 mM NaCl, 1 mM TCEP, 5% D2O; 1 uM DHT with AR-LBD or AR-DBD-LBD; both purified
[2] = target: AR-LBD (androgen receptor ligand-binding domain, residues 663-919) (human) (UniProt P10275); assay: NMR titration; 1H-15N TROSY-HSQC of 15N-AR-LBD bound to DHT, 40-50 uM, alone or with equimolar unlabelled KDM4A fragment; 25 C; 25 mM Tris pH 7.4, 125 mM NaCl, 0.1% octyl beta-D-glucopyranoside, 1 mM TCEP, 5% D2O, 1 uM DHT; both purified

Row | Molecule | binding [1] | binding [2]
1 | AR-DBD-LBD (androgen receptor residues 554-919) (from UniProt P10275 554-919) (domain or fragment) | no binding (tested: 40-50 uM of each, equimolar) | 
2 | AR-LBD (androgen receptor ligand-binding domain, residues 663-919) (from UniProt P10275 663-919) (domain or fragment) | no binding (tested: 40-50 uM of each, equimolar) | 
3 | B1 |  | binds weakly

Source: article PMC8730435
